Data on five molecules can be found in paper doi:10.1101/604223.

By UniProt entry, the sequences of proteins in these tests, tags left out.
UniProt Q5EE01: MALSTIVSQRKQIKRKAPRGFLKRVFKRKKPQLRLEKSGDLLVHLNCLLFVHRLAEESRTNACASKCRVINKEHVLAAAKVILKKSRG
UniProt Q92674: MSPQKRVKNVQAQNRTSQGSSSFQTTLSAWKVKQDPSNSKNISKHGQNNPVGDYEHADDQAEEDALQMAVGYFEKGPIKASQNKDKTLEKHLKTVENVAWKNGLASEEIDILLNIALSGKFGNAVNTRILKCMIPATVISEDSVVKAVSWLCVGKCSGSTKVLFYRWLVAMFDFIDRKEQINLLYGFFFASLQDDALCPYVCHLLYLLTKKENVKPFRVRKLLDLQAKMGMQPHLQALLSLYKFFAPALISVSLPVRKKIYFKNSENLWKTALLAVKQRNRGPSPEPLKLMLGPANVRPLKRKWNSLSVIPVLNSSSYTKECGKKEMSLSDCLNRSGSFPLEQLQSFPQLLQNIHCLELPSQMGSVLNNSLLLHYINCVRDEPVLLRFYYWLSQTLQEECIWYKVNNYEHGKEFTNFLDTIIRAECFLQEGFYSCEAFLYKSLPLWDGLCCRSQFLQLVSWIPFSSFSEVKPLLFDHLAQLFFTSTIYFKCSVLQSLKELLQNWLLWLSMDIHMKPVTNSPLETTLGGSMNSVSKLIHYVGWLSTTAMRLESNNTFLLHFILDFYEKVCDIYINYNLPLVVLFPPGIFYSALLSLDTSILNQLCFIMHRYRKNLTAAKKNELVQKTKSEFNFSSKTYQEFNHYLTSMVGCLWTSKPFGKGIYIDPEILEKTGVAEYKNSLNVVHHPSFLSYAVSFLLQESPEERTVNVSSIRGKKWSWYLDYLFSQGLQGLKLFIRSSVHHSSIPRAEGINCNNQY

The test addresses CENP-C (human (endogenous in HeLa)) (UniProt Q03188). Description: co-IP.

No constants are given. Whether binding was seen depends on the method and setting. Binding seen in cells or lysates may run through a third protein. Some entries that bind do so weakly or less than the wild type.

Consider CENP-W (from UniProt Q5EE01 1-88), for which the binding entry is reported as “binds”.
Regarding CENP-T (from UniProt Q96BT3 1-561), the binding result is given as “binds”.
Take HEC1/NDC80 (from UniProt O14777 1-642): the binding result was “binds”.
On to CENP-I (from UniProt Q92674 1-756), for which the binding entry is listed as “binds”.

B1: CENP-B (protein, UniProt P07199 1-599)
chain: MGPKRRQLTFREKSRIIQEVEENPDLRKGEIARRFNIPPSTLSTILKNKRAILASERKYGVASTCRKTNKLSPYDKLEGLLIAWFQQIRAAGLPVKGIILKEKALRIAEELGMDDFTASNGWLDRFRRRHGVVSCSGVARARARNAAPRTPAAPASPAAVPSEGSGGSTTGWRAREEQPPSVAEGYASQDVFSATETSLWYDFLPDQAAGLCGGDGRPRQATQRLSVLLCANADGSEKLPPLVAGKSAKPRAGQAGLPCDYTANSKGGVTTQALAKYLKALDTRMAAESRRVLLLAGRLAAQSLDTSGLRHVQLAFFPPGTVHPLERGVVQQVKGHYRQAMLLKAMAALEGQDPSGLQLGLTEALHFVAAAWQAVEPSDIAACFREAGFGGGPNATITTSLKSEGEEEEEEEEEEEEEEGEGEEEEEEGEEEEEEGGEGEELGEEEEVEEEGDVDSDEEEEEDEESSSEGLEAEDWAQGVVEAGGSFGAYGAQEEAQCPTLHFLEGGEDSDSDSEEEDDEEEDDEDEDDDDDEEDGDEVPVPSFGEAMAYFAMVKRYLTSFPIDDRVQSHILHLEHDLVHVTRKNHARQAGVRGLGHQS
Turning to B1, the binding entry was “binds”.
